PubChem BioAssay AID2685 (National Center for Advancing Translational Sciences (NCATS), 2010)
This is one part of the list. The main result of the screen is listed elsewhere. These columns were measured beside it and carry no call. Compounds called inactive in the main read-out are mostly missing here. Words in brackets tell the shape of the fitted curve; partial curves, single points and poor fits give uncertain potencies.

Assay: qHTS Assay for Lipid Storage Modulators in Drosophila S3 Cells;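 for cell number change: cells counted by Cell Tracker Red CMTPX staining in the red channel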
Conditions: BODIPY lipid droplet fluorescence, 18-24 h; for cell number change: measured here: cell count max response, cells fed with added oleic acid
Summary of the method: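 Laser-scanning cytometry quantifies lipid droplet accumulation (500–530 nm total intensity; droplet/cell object ratio) in oleic acid-fed (400 uM added) Drosophila S3 cells treated with a concentration series. 20 uM Triacsin C defined 100% inhibition.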

[1] = measured here: lipid fluorescence (Fed channel) AC50, cells fed with added oleic acid
[2] = measured here: cell number channel AC50, cells fed with added oleic acid

SMILES	AC50 [1]	cell number change [%]	AC50 [2]
CCc1c(C)nc(N)n2c(SCC(=O)NC3CCCCC3)nnc12	16.4 µM [falling, partial curve, poor fit]		
CCCN1CCN(C(=O)c2ccc(-c3ccc([N+](=O)[O-])cc3)o2)CC1	6.51 µM [falling, single point]	15.5	0.92 µM [falling, full curve]
COc1cc(-c2cc(C(=O)Nc3c(Cl)cc(Cl)cc3Cl)c3ccccc3n2)cc(OC)c1OC	32.6 µM [rising, single point]		
COc1ccc(NC(=O)CSc2nnc3ccc(-c4cccnc4)nn23)cc1OC	5.17 µM [falling, single point]	6.23	
COc1ccc(C2SCC(=O)N2CCCN(C)C)cc1 (centres undefined)		31.9	32.6 µM [rising, single point]
Cc1ccc(CN2CCN(/N=C/c3ccccc3)CC2)cc1	0.00411 µM [falling, full curve, poor fit]	-18.6	
O=C(O)C1CCN1C1CCCCC1 (centres undefined)	3.66 µM [falling, full curve]	-27.1	
Cc1nnc(C)n1N	0.731 µM [falling, full curve]	-21	
N#CCC(=O)Nc1ccc(C(=O)OCC(=O)NNC(=O)c2ccc(Cl)cc2)cc1	0.731 µM [falling, full curve, poor fit]	0.838	
O=C(O)c1[nH]c2ccccc2c1C(c1cc(Br)ccc1O)c1c(C(=O)O)[nH]c2ccccc12		-13.2	
COC(=O)c1ccc(NC(=O)CS(=O)(=O)Cc2ccccc2)cc1		-12.8	
NCCNC(=O)Cc1cccc(NC(=O)Cc2ccc(Nc3ncnc4c3ncn4[C@@H]3O[C@H](CO)[C@@H](O)[C@H]3O)cc2)c1	5.8 µM [falling, full curve, poor fit]	-19	
Cc1ccc(C)c(S(=O)(=O)NCCC(=O)N2CCCC(C(N)=O)C2)c1 (centres undefined)		-1.82	
CCOc1ccccc1NC(=O)CN(c1ccc(OC)cc1)S(=O)(=O)c1c(C)noc1C	0.461 µM [falling, single point]	-4.76	
Cc1noc(C)c1COC(=O)COc1ccc2c(C)cc(=O)oc2c1	0.82 µM [rising, full curve]	15.9	0.00517 µM [rising, full curve, poor fit]
S=C(NCCN1CCOCC1)N/N=C/c1c2ccccc2cc2ccccc12	2.91 µM [rising, partial curve]	32.4	1.84 µM [rising, full curve]
Cc1cccc(OCc2nnc(SCC(=O)Nc3ccc(C)c(Cl)c3)o2)c1	0.651 µM [falling, single point]	2.97	
CC(=O)N1CCc2cc(S(=O)(=O)CCC(=O)NCCc3ccccc3)ccc21	20.6 µM [rising, single point]	3.42	
CCCn1c(NC(=O)c2ccccc2Br)nc2ccccc21	29.1 µM [falling, single point]	-21.4	

Taken from the listing for reference:
SMILES	AC50 [1]	cell number change [%]	AC50 [2]
CCOc1ccccc1NC(=O)CN(c1ccc(OC)cc1)S(=O)(=O)c1c(C)noc1C	0.461 µM [falling, single point]	-4.76	
Cc1noc(C)c1COC(=O)COc1ccc2c(C)cc(=O)oc2c1	0.82 µM [rising, full curve]	15.9	0.00517 µM [rising, full curve, poor fit]
S=C(NCCN1CCOCC1)N/N=C/c1c2ccccc2cc2ccccc12	2.91 µM [rising, partial curve]	32.4	1.84 µM [rising, full curve]

The listing continues.

SMILES	AC50 [1]	cell number change [%]	AC50 [2]
Cc1nn(C)c(C)c1Sc1ccccc1N	0.0651 µM [falling, full curve]		
CCOc1ccc(S(=O)(=O)N2CCCC(C(=O)Nc3cc(C)cc(C)c3)C2)cc1 (centres undefined)	29.1 µM [rising, single point]	38.7	14.6 µM [rising, partial curve, poor fit]
O=C(Nc1cc(S(=O)(=O)Nc2ccc(Cl)cc2)ccc1O)c1ccc(S(=O)(=O)N2CCCCCC2)cc1	0.00517 µM [falling, full curve, poor fit]	30.8	9.2 µM [rising, single point]
Cc1ccc(CN2CC(C(=O)Nc3nnc(SCc4c(Cl)cccc4Cl)s3)CC2=O)cc1 (centres undefined)		-34.8	20.6 µM [falling, single point]
O=C(Nc1cccc(O)c1)c1cc(-c2ccco2)on1	0.651 µM [falling, single point]	-22.6	0.146 µM [falling, full curve, poor fit]
O=C(COc1ncnc2ccccc12)c1ccc2c(c1)OCCO2	0.0517 µM [falling, full curve, poor fit]	-34.6	32.6 µM [falling, partial curve, poor fit]
Cc1ccc(C(=O)O)cc1N1C(=O)c2cccc3cc(Br)cc(c23)C1=O	0.184 µM [falling, full curve, poor fit]	-18	
O=C(Nc1ccc(F)cc1)Nc1nnc(COc2ccccc2F)s1	17.8 µM [falling, partial curve, poor fit]	-34.8	20 µM [falling, partial curve, poor fit]
C/C(=N\NC(=O)C1(C)CC1(Br)Br)c1cccc(NC(=O)c2ccc(C)o2)c1 (centres undefined)	3.66 µM [falling, full curve, poor fit]	-48.8	18.4 µM [falling, single point]
CCCc1ccc(Oc2cc(NN3CCCCC3)c([N+](=O)[O-])cc2[N+](=O)[O-])cc1		15	
COc1ccc(/C=C/C(=O)OC2CCCCC2CN(C)C)cc1 (centres undefined)	0.517 µM [falling, single point]	0.106	
COC(=O)C(Nc1ccccc1Cl)(c1cc(C)c(O)c(C)c1)C(F)(F)F (centres undefined)	11.6 µM [falling, single point]	-87.8	29.1 µM [falling, single point]
COc1ccc(S(=O)(=O)Cc2ccc(C(=O)N3CCN(c4ccccc4)CC3)o2)cc1		76.5	29.1 µM [rising, single point]
COC(=O)c1ccc(/C=C2\Oc3ccccc3NC2=O)cc1		0.173	
CS(=O)(=O)Nc1cccc(C(=O)OCCCOc2ccc(F)cc2)c1		-29.7	
COc1ccc(-n2c3c(c(=O)[nH]c2=O)C(NC(C)=O)(C(F)(F)F)C(=O)N3)cc1 (centres undefined)		-0.228	1.46 µM [rising, partial curve, poor fit]
Cc1noc(C)c1COC(=O)c1cc2c(C)nn(-c3ccc(F)cc3)c2s1	8.2 µM [falling, partial curve, poor fit]	-18.9	0.461 µM [falling, full curve, poor fit]
Cc1ccc(C(=O)Nc2ccc(C(=O)O)cc2)cc1S(=O)(=O)Nc1cccc([N+](=O)[O-])c1	0.517 µM [rising, full curve]	23.8	
O=C(Cn1nc(Cc2cccnc2)c2ccccc2c1=O)NCc1ccc(F)cc1	0.00411 µM [rising, full curve, poor fit]		

SMILES	AC50 [1]	cell number change [%]	AC50 [2]
CC1(C)CC[C@]2(C(=O)O)CC[C@]3(C)C(=CCC4[C@@]5(C)CC[C@H](O)C(C)(C)C5CC[C@]43C)C2C1 (some centres undefined)	16.4 µM [rising, single point]	25.8	
COc1ccc(OC)c(-c2cc(C(=O)N/N=C(\C)c3cccnc3)c3ccccc3n2)c1	0.58 µM [rising, single point]	-30.2	0.82 µM [rising, partial curve]
O=C1c2ccccc2-c2nccnc21	0.103 µM [rising, full curve, poor fit]	-15.6	
Clc1ccc(CSc2nnc([C@@H]3CCCN3)o2)cc1	1.16 µM [rising, full curve]	94.6	2.91 µM [rising, full curve]
COc1ccc(CNC(=O)c2ccc(Cn3nc(C)cc3C)o2)cc1			0.116 µM [rising, full curve, poor fit]
COc1ccc(-c2[nH]c(-c3ccc(C)cc3)nc2SCC(=O)NCc2ccco2)cc1OC	18.4 µM [falling, single point]	-22	
Cc1ccc(C)c(NC(=S)N2CCC(NC(=O)c3cccc(F)c3)CC2)c1	8.2 µM [rising, partial curve]	-2.99	
COc1ccc2oc(C(=O)OCC(=O)NCCc3ccccc3)c(C)c2c1		15.5	0.164 µM [falling, full curve, poor fit]
O=C(CCC(=O)c1ccccc1)Nc1cccnc1		-11.6	
CC(C)Oc1ccc(C2C(C(=O)c3ccco3)=C(O)C(=O)N2Cc2cccnc2)cc1 (centres undefined)	1.16 µM [falling, full curve, poor fit]	-2.97	
Cc1ccc(CNC(=O)C2CCCN(S(=O)(=O)c3c(C)noc3C)C2)cc1 (centres undefined)	6.51 µM [rising, single point]	33.8	11.6 µM [rising, partial curve]
O=C(CSC1=NCCS1)N1CCOCC1	29.1 µM [falling, partial curve]	-13.1	
O=C(N/N=C1\CC2CC=CC12)c1ccc(O)cc1 (centres undefined)		-5.01	0.13 µM [falling, full curve]
CC(=NCCc1c(C)[nH]c2ccc(C)cc12)C1=C(O)CC(c2ccccc2)CC1=O (centres undefined)		7.06	
COc1cc(-c2nc3cnccn3c2Nc2c(C)cccc2C)ccc1O	6.51 µM [rising, single point]	-20.4	
CCN(CC)CCNC(=O)c1c(O)c2c([nH]c1=O)CCCC2	6.51 µM [falling, partial curve]	-55.2	6.51 µM [falling, full curve]
Cc1ccccc1Nc1nc(N)nc(COC(=O)[C@@H](NC(=O)c2c(F)cccc2F)C(C)C)n1	0.651 µM [rising, full curve]		
Cc1cc(=S)n(-c2ccccc2)n1C	2.06 µM [falling, full curve, poor fit]	-24.5	0.092 µM [falling, full curve, poor fit]
